# Reference: the supplement of paper PMC6411743
# The chains behind the UniProt entries cited, without tags or fusion partners. Where a name states a change or a piece, a line headed by the entry shows the natural chain unless it says otherwise.
# UniProt Q9UJA5: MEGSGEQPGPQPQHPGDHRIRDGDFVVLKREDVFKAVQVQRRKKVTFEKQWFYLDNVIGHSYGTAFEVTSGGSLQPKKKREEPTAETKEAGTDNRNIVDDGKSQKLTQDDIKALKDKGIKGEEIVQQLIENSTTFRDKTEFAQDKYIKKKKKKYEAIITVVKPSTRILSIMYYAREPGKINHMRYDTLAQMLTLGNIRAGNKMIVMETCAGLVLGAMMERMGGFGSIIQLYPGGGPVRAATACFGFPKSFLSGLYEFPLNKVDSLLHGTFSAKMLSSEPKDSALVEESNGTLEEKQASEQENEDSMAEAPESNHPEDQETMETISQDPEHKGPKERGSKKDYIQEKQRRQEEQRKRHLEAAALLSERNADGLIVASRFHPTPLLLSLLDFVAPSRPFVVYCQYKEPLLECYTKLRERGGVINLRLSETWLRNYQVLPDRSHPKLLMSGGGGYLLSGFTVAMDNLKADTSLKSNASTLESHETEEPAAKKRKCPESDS
# UniProt Q9NVM6: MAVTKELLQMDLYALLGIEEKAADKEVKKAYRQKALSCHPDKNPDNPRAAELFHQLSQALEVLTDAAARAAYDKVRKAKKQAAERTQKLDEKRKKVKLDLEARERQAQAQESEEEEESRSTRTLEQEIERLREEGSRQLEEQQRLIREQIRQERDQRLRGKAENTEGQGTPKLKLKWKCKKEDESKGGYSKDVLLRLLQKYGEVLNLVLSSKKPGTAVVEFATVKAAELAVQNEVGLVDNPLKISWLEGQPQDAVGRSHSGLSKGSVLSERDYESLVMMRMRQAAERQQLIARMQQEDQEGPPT
# UniProt Q9UHB7: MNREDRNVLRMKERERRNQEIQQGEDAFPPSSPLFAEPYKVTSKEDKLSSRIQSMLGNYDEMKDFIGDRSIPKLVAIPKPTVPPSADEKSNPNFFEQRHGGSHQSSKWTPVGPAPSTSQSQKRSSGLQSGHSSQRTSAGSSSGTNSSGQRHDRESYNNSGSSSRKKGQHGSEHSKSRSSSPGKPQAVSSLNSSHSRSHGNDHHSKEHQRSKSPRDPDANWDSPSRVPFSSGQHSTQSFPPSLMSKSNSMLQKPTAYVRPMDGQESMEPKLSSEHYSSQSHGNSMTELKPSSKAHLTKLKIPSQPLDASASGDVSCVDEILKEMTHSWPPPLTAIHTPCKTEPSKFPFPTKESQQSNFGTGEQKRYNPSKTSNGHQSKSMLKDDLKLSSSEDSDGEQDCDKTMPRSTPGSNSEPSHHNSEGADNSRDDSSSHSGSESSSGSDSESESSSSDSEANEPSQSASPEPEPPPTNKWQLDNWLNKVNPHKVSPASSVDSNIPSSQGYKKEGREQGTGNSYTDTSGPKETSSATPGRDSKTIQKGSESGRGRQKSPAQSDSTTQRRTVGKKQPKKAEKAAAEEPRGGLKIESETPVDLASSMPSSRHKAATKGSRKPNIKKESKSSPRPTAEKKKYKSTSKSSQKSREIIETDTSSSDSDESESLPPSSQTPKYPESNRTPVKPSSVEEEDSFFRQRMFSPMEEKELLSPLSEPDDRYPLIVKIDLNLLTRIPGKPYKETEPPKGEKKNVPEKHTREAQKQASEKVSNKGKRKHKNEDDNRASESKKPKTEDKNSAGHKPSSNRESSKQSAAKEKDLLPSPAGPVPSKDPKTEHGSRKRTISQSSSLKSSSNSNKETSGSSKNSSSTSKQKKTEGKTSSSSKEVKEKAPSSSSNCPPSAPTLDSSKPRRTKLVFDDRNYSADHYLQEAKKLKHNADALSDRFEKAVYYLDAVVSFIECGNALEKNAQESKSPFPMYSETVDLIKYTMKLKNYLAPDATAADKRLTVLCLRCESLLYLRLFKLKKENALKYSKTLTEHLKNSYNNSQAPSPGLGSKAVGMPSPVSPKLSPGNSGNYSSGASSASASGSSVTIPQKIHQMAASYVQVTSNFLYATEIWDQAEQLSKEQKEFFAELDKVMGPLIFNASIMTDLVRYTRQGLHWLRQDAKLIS
# UniProt Q9UBL3, whole entry: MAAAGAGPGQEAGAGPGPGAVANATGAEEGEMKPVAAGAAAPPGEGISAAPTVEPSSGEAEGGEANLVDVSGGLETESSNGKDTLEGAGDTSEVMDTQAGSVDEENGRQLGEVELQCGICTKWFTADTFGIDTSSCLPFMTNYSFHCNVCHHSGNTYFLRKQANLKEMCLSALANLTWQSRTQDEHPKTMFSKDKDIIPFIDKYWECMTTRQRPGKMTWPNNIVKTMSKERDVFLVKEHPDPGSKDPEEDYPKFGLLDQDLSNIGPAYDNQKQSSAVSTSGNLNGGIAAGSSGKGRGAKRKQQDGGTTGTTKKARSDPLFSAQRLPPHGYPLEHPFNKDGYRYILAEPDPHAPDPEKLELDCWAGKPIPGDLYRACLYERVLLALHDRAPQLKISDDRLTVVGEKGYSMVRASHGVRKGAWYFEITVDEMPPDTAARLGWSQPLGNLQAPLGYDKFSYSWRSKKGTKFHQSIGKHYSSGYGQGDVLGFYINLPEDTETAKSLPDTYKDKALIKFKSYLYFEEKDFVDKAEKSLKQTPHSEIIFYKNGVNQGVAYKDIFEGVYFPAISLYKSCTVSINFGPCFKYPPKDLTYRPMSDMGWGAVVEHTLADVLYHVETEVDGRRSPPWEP
# UniProt Q9NVN8: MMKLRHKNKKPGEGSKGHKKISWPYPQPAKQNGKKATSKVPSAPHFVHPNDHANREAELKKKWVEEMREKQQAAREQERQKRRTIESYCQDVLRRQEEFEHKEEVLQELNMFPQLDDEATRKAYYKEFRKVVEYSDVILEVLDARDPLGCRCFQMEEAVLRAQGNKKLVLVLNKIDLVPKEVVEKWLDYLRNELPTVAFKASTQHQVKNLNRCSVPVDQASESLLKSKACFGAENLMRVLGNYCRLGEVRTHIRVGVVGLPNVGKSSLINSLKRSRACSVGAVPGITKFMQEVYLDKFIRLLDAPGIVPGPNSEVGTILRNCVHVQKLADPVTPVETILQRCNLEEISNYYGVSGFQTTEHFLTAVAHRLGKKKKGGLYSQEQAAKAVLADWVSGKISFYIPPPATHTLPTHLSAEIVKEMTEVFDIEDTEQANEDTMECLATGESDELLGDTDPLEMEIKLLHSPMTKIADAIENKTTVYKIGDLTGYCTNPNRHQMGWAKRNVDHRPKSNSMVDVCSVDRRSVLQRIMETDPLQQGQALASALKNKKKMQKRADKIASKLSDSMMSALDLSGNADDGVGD
# UniProt Q9P1Y5: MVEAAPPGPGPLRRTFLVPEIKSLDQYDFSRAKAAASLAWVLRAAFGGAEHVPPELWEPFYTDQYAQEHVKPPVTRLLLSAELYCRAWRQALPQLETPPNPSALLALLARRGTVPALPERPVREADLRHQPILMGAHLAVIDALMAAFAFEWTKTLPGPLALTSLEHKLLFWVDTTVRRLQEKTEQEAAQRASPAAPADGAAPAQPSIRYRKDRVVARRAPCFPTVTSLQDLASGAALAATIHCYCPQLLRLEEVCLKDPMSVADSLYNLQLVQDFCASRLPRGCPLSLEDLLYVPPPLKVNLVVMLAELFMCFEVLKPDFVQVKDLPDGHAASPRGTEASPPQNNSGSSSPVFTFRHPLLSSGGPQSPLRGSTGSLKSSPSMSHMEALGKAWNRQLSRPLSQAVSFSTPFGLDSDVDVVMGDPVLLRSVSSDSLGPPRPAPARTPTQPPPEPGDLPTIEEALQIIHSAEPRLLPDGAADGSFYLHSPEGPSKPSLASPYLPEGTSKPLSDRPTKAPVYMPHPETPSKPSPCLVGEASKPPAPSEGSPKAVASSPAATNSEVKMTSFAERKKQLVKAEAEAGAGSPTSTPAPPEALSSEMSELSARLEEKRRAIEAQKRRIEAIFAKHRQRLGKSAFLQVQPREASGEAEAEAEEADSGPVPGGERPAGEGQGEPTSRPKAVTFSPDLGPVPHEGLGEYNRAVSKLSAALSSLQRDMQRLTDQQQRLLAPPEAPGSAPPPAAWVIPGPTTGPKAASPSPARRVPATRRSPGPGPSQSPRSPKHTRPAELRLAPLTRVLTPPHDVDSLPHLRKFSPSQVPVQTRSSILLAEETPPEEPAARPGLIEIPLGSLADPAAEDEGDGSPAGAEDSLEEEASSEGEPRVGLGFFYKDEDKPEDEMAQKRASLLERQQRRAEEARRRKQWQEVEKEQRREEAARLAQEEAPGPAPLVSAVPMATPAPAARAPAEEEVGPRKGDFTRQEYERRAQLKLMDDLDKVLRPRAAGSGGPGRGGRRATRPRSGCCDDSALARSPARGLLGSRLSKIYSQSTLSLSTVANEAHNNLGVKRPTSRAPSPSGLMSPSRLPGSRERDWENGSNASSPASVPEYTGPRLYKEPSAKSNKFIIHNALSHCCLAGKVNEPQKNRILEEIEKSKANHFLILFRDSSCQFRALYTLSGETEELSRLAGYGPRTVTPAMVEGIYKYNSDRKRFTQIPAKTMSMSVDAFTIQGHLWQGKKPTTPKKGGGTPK
# UniProt Q9UIW2: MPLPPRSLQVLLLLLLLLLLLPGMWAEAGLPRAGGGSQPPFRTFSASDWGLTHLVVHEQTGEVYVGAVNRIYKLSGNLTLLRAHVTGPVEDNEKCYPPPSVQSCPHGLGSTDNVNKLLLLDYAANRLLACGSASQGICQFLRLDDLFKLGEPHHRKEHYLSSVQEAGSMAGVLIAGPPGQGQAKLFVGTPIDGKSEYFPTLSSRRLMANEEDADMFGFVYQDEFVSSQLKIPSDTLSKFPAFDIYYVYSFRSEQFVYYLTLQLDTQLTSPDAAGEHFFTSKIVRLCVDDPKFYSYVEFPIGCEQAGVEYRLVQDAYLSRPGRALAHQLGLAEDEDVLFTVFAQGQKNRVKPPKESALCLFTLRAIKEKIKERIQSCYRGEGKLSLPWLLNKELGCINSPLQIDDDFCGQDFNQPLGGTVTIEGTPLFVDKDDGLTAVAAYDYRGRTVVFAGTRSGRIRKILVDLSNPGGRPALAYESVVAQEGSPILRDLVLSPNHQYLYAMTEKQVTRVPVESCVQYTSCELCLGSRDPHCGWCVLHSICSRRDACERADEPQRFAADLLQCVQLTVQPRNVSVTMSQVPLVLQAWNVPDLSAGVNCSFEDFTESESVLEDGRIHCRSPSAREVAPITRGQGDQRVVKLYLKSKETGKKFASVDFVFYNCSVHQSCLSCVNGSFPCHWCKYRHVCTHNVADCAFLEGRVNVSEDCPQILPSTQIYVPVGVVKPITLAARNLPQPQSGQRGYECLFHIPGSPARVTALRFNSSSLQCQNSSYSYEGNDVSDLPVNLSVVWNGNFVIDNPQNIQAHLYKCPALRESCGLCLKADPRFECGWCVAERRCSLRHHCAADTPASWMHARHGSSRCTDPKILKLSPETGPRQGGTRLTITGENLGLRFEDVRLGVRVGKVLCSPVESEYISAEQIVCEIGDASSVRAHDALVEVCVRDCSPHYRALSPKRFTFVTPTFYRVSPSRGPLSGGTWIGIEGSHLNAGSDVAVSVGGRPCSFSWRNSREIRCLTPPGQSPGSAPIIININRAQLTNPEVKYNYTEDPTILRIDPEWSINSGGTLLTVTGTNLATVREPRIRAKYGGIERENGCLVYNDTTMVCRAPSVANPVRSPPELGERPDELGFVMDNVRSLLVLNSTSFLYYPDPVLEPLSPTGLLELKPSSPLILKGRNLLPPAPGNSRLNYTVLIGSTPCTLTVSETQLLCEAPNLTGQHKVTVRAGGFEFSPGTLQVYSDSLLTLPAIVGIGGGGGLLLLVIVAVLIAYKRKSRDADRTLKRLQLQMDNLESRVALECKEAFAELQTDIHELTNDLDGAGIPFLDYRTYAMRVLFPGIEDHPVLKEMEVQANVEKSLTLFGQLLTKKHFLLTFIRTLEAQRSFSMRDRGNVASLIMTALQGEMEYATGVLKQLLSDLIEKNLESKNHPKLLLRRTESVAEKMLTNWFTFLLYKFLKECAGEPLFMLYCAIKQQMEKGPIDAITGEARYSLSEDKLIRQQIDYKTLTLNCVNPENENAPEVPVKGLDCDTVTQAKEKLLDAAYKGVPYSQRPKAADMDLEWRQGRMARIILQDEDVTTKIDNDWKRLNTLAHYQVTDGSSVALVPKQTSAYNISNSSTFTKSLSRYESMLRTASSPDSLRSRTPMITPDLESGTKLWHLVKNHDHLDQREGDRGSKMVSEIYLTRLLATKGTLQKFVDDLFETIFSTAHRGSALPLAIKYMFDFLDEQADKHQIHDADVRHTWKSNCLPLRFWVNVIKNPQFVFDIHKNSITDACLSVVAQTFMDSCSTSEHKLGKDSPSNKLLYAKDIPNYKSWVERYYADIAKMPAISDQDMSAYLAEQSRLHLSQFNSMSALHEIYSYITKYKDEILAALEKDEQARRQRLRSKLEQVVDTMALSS
# ± gives the standard deviation of the averaged measurements. Some of the results follow.
# Compound: Nc1nc2c(ncn2[C@@H]2O[C@H](COP(=O)(O)OP(=O)(O)OP(=O)(O)O)[C@@H](O)[C@H]2O)c(=O)[nH]1 [guanosine triphosphate]
# Assay: NP40-soluble protein abundance relative to vehicle (solubility fold change) (ratio); higher = more soluble protein in presence of GTP
# Procedure, shortened: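 Crude Jurkat lysate, prepared by Dounce homogenisation, was exposed to eight concentrations from 0.1 to 10 mM for 10 min at room temperature and then 3 min at 37 °C. Solubilisation used 0.8% NP40 with benzonase for 60 min at 4 °C, followed by ultracentrifugation and TMT labelling of the supernatant for LC-MS/MS. After vsn normalisation of intensities, each value is the fold change against the detergent-processed vehicle within each replicate, across three independent experiments.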
target,measurement,setting,value
TRMT6 (UniProt Q9UJA5),NP40-soluble protein abundance,concentration: 0.1mM,1 ± 0.038
same,NP40-soluble protein abundance,concentration: 0.5mM,0.9845 ± 0.006
same,NP40-soluble protein abundance,concentration: 1mM,0.9744 ± 0.0043
same,NP40-soluble protein abundance,concentration: 2mM,0.973 ± 0.029
same,NP40-soluble protein abundance,concentration: 4mM,0.968 ± 0.054
same,NP40-soluble protein abundance,concentration: 6mM,0.952 ± 0.017
same,NP40-soluble protein abundance,concentration: 8mM,0.965 ± 0.0097
same,NP40-soluble protein abundance,concentration: 10mM,0.968 ± 0.019
UniProt Q9UEW8 and related entries,NP40-soluble protein abundance,concentration: 0.1mM,0.948 ± 0.026
same,NP40-soluble protein abundance,concentration: 0.5mM,1 ± 0.035
same,NP40-soluble protein abundance,concentration: 1mM,0.919 ± 0.041
same,NP40-soluble protein abundance,concentration: 2mM,0.939 ± 0.041
same,NP40-soluble protein abundance,concentration: 4mM,0.8758 ± 0.0044
same,NP40-soluble protein abundance,concentration: 6mM,0.937 ± 0.013
same,NP40-soluble protein abundance,concentration: 8mM,0.863 ± 0.028
same,NP40-soluble protein abundance,concentration: 10mM,0.929 ± 0.06
UniProt Q9NUP7,NP40-soluble protein abundance,concentration: 0.1mM,1.01 ± 0.045
same,NP40-soluble protein abundance,concentration: 0.5mM,1.01 ± 0.043
same,NP40-soluble protein abundance,concentration: 1mM,0.984 ± 0.08
same,NP40-soluble protein abundance,concentration: 2mM,0.94 ± 0.11
same,NP40-soluble protein abundance,concentration: 4mM,0.945 ± 0.12
same,NP40-soluble protein abundance,concentration: 6mM,0.905 ± 0.085
same,NP40-soluble protein abundance,concentration: 8mM,0.932 ± 0.078
same,NP40-soluble protein abundance,concentration: 10mM,0.913 ± 0.14
DNAJC17 (UniProt Q9NVM6),NP40-soluble protein abundance,concentration: 0.1mM,0.836 ± 0.025
same,NP40-soluble protein abundance,concentration: 0.5mM,0.92 ± 0.14
same,NP40-soluble protein abundance,concentration: 1mM,0.992 ± 0.11
same,NP40-soluble protein abundance,concentration: 2mM,1.01 ± 0.028
same,NP40-soluble protein abundance,concentration: 4mM,1.08 ± 0.1
same,NP40-soluble protein abundance,concentration: 6mM,1.06 ± 0.15
same,NP40-soluble protein abundance,concentration: 8mM,0.987 ± 0.027
same,NP40-soluble protein abundance,concentration: 10mM,1.23 ± 0.2
AFF4 (UniProt Q9UHB7),NP40-soluble protein abundance,concentration: 0.1mM,1.05 ± 0.035
same,NP40-soluble protein abundance,concentration: 0.5mM,1 ± 0.026
same,NP40-soluble protein abundance,concentration: 1mM,1.026 ± 0.007
same,NP40-soluble protein abundance,concentration: 2mM,1.06 ± 0.013
same,NP40-soluble protein abundance,concentration: 4mM,1.07 ± 0.056
same,NP40-soluble protein abundance,concentration: 6mM,1.05 ± 0.059
same,NP40-soluble protein abundance,concentration: 8mM,1.09 ± 0.075
same,NP40-soluble protein abundance,concentration: 10mM,1.08 ± 0.08
UniProt Q9UBL3 and related entries,NP40-soluble protein abundance,concentration: 0.1mM,0.994 ± 0.011
same,NP40-soluble protein abundance,concentration: 0.5mM,1.04 ± 0.032
same,NP40-soluble protein abundance,concentration: 1mM,1.015 ± 0.0035
same,NP40-soluble protein abundance,concentration: 2mM,1.027 ± 0.0092
same,NP40-soluble protein abundance,concentration: 4mM,1.02 ± 0.011
same,NP40-soluble protein abundance,concentration: 6mM,1.04 ± 0.024
same,NP40-soluble protein abundance,concentration: 8mM,1.06 ± 0.042
same,NP40-soluble protein abundance,concentration: 10mM,1.04 ± 0.021
UniProt Q9NUY8 and related entries,NP40-soluble protein abundance,concentration: 0.1mM,1 ± 0.075
same,NP40-soluble protein abundance,concentration: 0.5mM,0.952 ± 0.052
same,NP40-soluble protein abundance,concentration: 1mM,0.994 ± 0.064
same,NP40-soluble protein abundance,concentration: 2mM,1.1 ± 0.2
same,NP40-soluble protein abundance,concentration: 4mM,0.946 ± 0.071
same,NP40-soluble protein abundance,concentration: 6mM,0.941 ± 0.059
same,NP40-soluble protein abundance,concentration: 8mM,0.958 ± 0.076
same,NP40-soluble protein abundance,concentration: 10mM,0.959 ± 0.091
UniProt Q9UIQ6 and related entries,NP40-soluble protein abundance,concentration: 0.1mM,0.957 ± 0.023
same,NP40-soluble protein abundance,concentration: 0.5mM,0.96 ± 0.04
same,NP40-soluble protein abundance,concentration: 1mM,0.99 ± 0.032
same,NP40-soluble protein abundance,concentration: 2mM,0.983 ± 0.054
same,NP40-soluble protein abundance,concentration: 4mM,0.97 ± 0.071
same,NP40-soluble protein abundance,concentration: 6mM,0.997 ± 0.048
same,NP40-soluble protein abundance,concentration: 8mM,0.9699 ± 0.0049
same,NP40-soluble protein abundance,concentration: 10mM,0.974 ± 0.052
GNL3L (UniProt Q9NVN8),NP40-soluble protein abundance,concentration: 0.1mM,1.22 ± 0.15
same,NP40-soluble protein abundance,concentration: 0.5mM,1.18 ± 0.13
same,NP40-soluble protein abundance,concentration: 1mM,1.15 ± 0.1
same,NP40-soluble protein abundance,concentration: 2mM,1.26 ± 0.21
same,NP40-soluble protein abundance,concentration: 4mM,1.33 ± 0.21
same,NP40-soluble protein abundance,concentration: 6mM,1.35 ± 0.27
same,NP40-soluble protein abundance,concentration: 8mM,1.34 ± 0.27
same,NP40-soluble protein abundance,concentration: 10mM,1.29 ± 0.12
UniProt Q9P1Y5 and related entries,NP40-soluble protein abundance,concentration: 0.1mM,1.07 ± 0.041
same,NP40-soluble protein abundance,concentration: 0.5mM,1.13 ± 0.051
same,NP40-soluble protein abundance,concentration: 1mM,1.07 ± 0.074
same,NP40-soluble protein abundance,concentration: 2mM,1.13 ± 0.042
same,NP40-soluble protein abundance,concentration: 4mM,1.147 ± 0.0027
same,NP40-soluble protein abundance,concentration: 6mM,1.18 ± 0.14
same,NP40-soluble protein abundance,concentration: 8mM,1.15 ± 0.016
same,NP40-soluble protein abundance,concentration: 10mM,1.14 ± 0.031
UniProt Q9ULE6,NP40-soluble protein abundance,concentration: 0.1mM,0.969 ± 0.13
same,NP40-soluble protein abundance,concentration: 0.5mM,1.19 ± 0.15
same,NP40-soluble protein abundance,concentration: 1mM,1.03 ± 0.091
same,NP40-soluble protein abundance,concentration: 2mM,1.04 ± 0.17
same,NP40-soluble protein abundance,concentration: 4mM,1.09 ± 0.065
same,NP40-soluble protein abundance,concentration: 6mM,1.07 ± 0.075
same,NP40-soluble protein abundance,concentration: 8mM,1 ± 0.13
same,NP40-soluble protein abundance,concentration: 10mM,0.992 ± 0.1
UniProt Q9NXR1 and related entries,NP40-soluble protein abundance,concentration: 0.1mM,1.03 ± 0.082
same,NP40-soluble protein abundance,concentration: 0.5mM,1.02 ± 0.081
same,NP40-soluble protein abundance,concentration: 1mM,1.13 ± 0.1
same,NP40-soluble protein abundance,concentration: 2mM,1.09 ± 0.017
same,NP40-soluble protein abundance,concentration: 4mM,0.995 ± 0.031
same,NP40-soluble protein abundance,concentration: 6mM,1.06 ± 0.095
same,NP40-soluble protein abundance,concentration: 8mM,1.07 ± 0.15
same,NP40-soluble protein abundance,concentration: 10mM,1.11 ± 0.11
PLXNA1 (UniProt Q9UIW2),NP40-soluble protein abundance,concentration: 0.1mM,1.02 ± 0.034
same,NP40-soluble protein abundance,concentration: 0.5mM,0.979 ± 0.067
same,NP40-soluble protein abundance,concentration: 1mM,1.01 ± 0.024
same,NP40-soluble protein abundance,concentration: 2mM,1.07 ± 0.081
same,NP40-soluble protein abundance,concentration: 4mM,1.02 ± 0.082
same,NP40-soluble protein abundance,concentration: 6mM,0.97 ± 0.092
same,NP40-soluble protein abundance,concentration: 8mM,1.03 ± 0.071
same,NP40-soluble protein abundance,concentration: 10mM,1.01 ± 0.047
CHORDC1 (UniProt Q9UHD1),NP40-soluble protein abundance,concentration: 0.1mM,0.949 ± 0.03
same,NP40-soluble protein abundance,concentration: 0.5mM,0.981 ± 0.017
same,NP40-soluble protein abundance,concentration: 1mM,0.954 ± 0.045
same,NP40-soluble protein abundance,concentration: 2mM,0.92 ± 0.043
same,NP40-soluble protein abundance,concentration: 4mM,0.892 ± 0.048
same,NP40-soluble protein abundance,concentration: 6mM,0.927 ± 0.024
same,NP40-soluble protein abundance,concentration: 8mM,0.908 ± 0.052
same,NP40-soluble protein abundance,concentration: 10mM,0.893 ± 0.041
UniProt Q9UJ83 and related entries,NP40-soluble protein abundance,concentration: 0.1mM,1.067 ± 0.0066
same,NP40-soluble protein abundance,concentration: 0.5mM,1.03 ± 0.11
same,NP40-soluble protein abundance,concentration: 1mM,0.98 ± 0.05
same,NP40-soluble protein abundance,concentration: 2mM,1.01 ± 0.11
same,NP40-soluble protein abundance,concentration: 4mM,0.987 ± 0.04
same,NP40-soluble protein abundance,concentration: 6mM,0.958 ± 0.08
same,NP40-soluble protein abundance,concentration: 8mM,0.926 ± 0.021
same,NP40-soluble protein abundance,concentration: 10mM,0.9129 ± 0.0074

# Retrieved one by one from the entries so far:
target,measurement,setting,value
TRMT6 (UniProt Q9UJA5),NP40-soluble protein abundance,concentration: 6mM,0.952 ± 0.017
UniProt Q9NXR1 and related entries,NP40-soluble protein abundance,concentration: 2mM,1.09 ± 0.017
AFF4 (UniProt Q9UHB7),NP40-soluble protein abundance,concentration: 1mM,1.026 ± 0.007

# In another format: entries from further up
target | measurement | setting | value
UniProt Q9P1Y5 and related entries | NP40-soluble protein abundance | concentration: 6mM | 1.18 ± 0.14
same | NP40-soluble protein abundance | concentration: 8mM | 1.15 ± 0.016
same | NP40-soluble protein abundance | concentration: 10mM | 1.14 ± 0.031
